This is an account of results in article doi:10.1101/2020.11.11.367672 (bioRxiv, 2020).

Protein sequences, listed by entry. Tags and fused reporters are not part of them.
UniProt Q9H6T3: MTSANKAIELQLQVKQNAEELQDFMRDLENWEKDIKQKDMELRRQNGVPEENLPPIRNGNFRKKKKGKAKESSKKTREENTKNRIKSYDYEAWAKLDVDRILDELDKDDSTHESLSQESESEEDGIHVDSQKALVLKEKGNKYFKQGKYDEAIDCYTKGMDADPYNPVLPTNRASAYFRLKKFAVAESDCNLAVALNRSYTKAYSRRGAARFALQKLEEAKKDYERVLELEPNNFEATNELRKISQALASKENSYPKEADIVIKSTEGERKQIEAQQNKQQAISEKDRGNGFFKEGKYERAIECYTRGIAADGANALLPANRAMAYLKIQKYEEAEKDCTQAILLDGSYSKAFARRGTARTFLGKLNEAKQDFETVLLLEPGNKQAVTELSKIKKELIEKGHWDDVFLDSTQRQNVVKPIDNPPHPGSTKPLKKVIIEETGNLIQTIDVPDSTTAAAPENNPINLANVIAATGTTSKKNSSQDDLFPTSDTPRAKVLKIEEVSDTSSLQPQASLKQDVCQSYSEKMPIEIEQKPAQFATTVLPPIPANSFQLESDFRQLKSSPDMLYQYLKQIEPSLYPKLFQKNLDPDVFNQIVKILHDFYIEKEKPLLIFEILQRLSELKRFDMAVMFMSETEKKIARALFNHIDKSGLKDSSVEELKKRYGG
UniProt Q9Y265: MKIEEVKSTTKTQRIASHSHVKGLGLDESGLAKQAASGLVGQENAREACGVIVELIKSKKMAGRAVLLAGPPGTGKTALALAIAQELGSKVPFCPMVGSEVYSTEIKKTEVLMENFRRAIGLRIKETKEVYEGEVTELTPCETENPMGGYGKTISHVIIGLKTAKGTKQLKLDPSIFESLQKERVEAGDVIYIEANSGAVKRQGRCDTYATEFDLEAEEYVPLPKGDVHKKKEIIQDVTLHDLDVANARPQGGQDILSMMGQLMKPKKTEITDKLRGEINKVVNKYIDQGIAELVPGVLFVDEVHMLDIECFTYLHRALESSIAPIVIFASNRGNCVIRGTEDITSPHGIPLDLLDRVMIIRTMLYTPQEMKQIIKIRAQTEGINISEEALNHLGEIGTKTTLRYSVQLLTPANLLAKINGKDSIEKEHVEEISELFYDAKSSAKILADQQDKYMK

No constants are given. Whether binding was seen depends on the method and setting. Tags and fused reporters may be left off the sequences shown.

Assay [1] has as its target T1, TRBP (yeast two-hybrid fusion) (human) (UniProt Q15633).
T1 sequence: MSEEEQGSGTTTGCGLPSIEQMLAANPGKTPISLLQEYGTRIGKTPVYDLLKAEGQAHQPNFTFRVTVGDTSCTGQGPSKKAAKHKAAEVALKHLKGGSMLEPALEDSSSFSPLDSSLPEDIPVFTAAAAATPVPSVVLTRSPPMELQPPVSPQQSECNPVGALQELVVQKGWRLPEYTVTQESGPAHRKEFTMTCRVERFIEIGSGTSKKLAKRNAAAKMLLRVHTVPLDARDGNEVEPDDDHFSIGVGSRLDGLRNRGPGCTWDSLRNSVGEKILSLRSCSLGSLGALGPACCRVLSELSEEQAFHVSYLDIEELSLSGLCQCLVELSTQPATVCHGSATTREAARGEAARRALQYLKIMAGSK
Put plainly: two-hybrid.

The target in assay [2] is RPAP3 (yeast two-hybrid fusion) (human) (UniProt Q9H6T3). Put plainly: two-hybrid.

With “RUVBL1 (yeast two-hybrid fusion) (from UniProt Q9Y265 1-456)”, in assay [1], the binding result is “no binding”.

B1: PACT (yeast two-hybrid fusion) (protein, UniProt O75569 1-313)
chain: MSQSRHRAEAPPLEREDSGTFSLGKMITAKPGKTPIQVLHEYGMKTKNIPVYECERSDVQIHVPTFTFRVTVGDITCTGEGTSKKLAKHRAAEAAINILKANASICFAVPDPLMPDPSKQPKNQLNPIGSLQELAIHHGWRLPEYTLSQEGGPAHKREYTTICRLESFMETGKGASKKQAKRNAAEKFLAKFSNISPENHISLTNVVGHSLGCTWHSLRNSPGEKINLLKRSLLSIPNTDYIQLLSEIAKEQGFNITYLDIDELSANGQYQCLAELSTSPITVCHGSGISCGNAQSDAAHNALQYLKIIAERK
Consider B1, for which the binding entry in assay [2] is reported as “no binding”.
